Literature values in patent US20220095646A1, “METHODS FOR THE PRODUCTION AND USE OF MYCELIATED AMINO ACID-SUPPLEMENTED FOOD COMPOSITIONS” (MycoTechnology, Inc., priority 2019, published 2022).

Conditions: free amino acid
In the case of `N[C@@H](CS)C(=O)O` [Cysteine], the taste as described is given as “strong, concentrated and nausea-inducing, compared to sewage, rotten eggs and sulfur, and bitter”.
For `NCCCC[C@H](N)C(=O)O` [Lysine], the taste as described is given as “salty and bitter with a sharp component”.
For `CSCC[C@H](N)C(=O)O` [methionine], the taste as described is given as “very repulsive, metallic, mineral, bitter and induces nausea”.
